According to the supplement of paper PMC8728848:
The other results are listed elsewhere or left out.

Legend:
Experiment in all cases: glycan array binding signal (z-score within array); higher = stronger binding
Details in all cases: glycan notation: IUPAC condensed, linker removed
[1] = target: Fuc(a1-2)[Gal(a1-3)]Gal(b1-3)GlcNAc(b1-6)GalNAc
In short: (§1)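 Negative Z-scores can be read as non-binding. The Z-score is calculated within each array and then averaged across arrays of one protein sequence at different concentrations or buffers and across linkers. Arrays, 3228 in all, were curated from the Consortium for Functional Glycomics database and kept only where the protein sequence was available.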

[2] = target: Fuc(a1-2)[Gal(a1-3)]Gal(b1-4)Glc
In short: as §1

[3] = target: Fuc(a1-2)[Gal(a1-3)]Gal(b1-4)GlcNAc
In short: as §1

[4] = target: Fuc(a1-2)[Gal(a1-3)]Gal(b1-4)GlcNAc(b1-2)Man
In short: as §1

[5] = target: Fuc(a1-2)[Gal(a1-3)]Gal(b1-4)GlcNAc(b1-2)Man(a1-3)[Fuc(a1-2)[Gal(a1-3)]Gal(b1-4)GlcNAc(b1-2)Man(a1-6)]Man(b1-4)GlcNAc(b1-4)GlcNAc
In short: as §1

[6] = target: Fuc(a1-2)[Gal(a1-3)]Gal(b1-4)GlcNAc(b1-2)Man(a1-3)[Fuc(a1-2)[Gal(a1-3)]Gal(b1-4)GlcNAc(b1-2)Man(a1-6)]Man(b1-4)GlcNAc(b1-4)[Fuc(a1-6)]GlcNAc
In short: as §1

[7] = target: Fuc(a1-2)[Gal(a1-3)]Gal(b1-4)GlcNAc(b1-3)GalNAc
In short: as §1

[8] = target: Fuc(a1-2)[Gal(a1-3)]Gal(b1-4)GlcNAc(b1-6)GalNAc
In short: as §1

[9] = target: Fuc(a1-2)[Gal(a1-3)]Gal(b1-4)[Fuc(a1-3)]Glc
In short: as §1

[10] = target: Fuc(a1-2)[Gal(a1-3)]Gal(b1-4)[Fuc(a1-3)]GlcNAc
In short: as §1

[11] = target: Fuc(a1-2)[Gal(a1-3)]Gal(b1-4)[Fuc(a1-3)]GlcNAc(b1-3)GalNAc
In short: as §1

[12] = target: Fuc(a1-2)[Gal(a1-4)]Gal(b1-4)GlcNAc
In short: as §1

[13] = target: Fuc(a1-2)[GalNAc(a1-3)]Gal
In short: as §1

[14] = target: Fuc(a1-2)[GalNAc(a1-3)]Gal(b1-3)GalNAc(a1-3)[Fuc(a1-2)]Gal(b1-4)GlcNAc
In short: as §1

[15] = target: Fuc(a1-2)[GalNAc(a1-3)]Gal(b1-3)GalNAc(b1-3)Gal(a1-4)Gal(b1-4)Glc
In short: as §1

[16] = target: Fuc(a1-2)[GalNAc(a1-3)]Gal(b1-3)GlcNAc
In short: as §1

[17] = target: Fuc(a1-2)[GalNAc(a1-3)]Gal(b1-3)GlcNAc(b1-2)Man(a1-3)[Fuc(a1-2)[GalNAc(a1-3)]Gal(b1-3)GlcNAc(b1-2)Man(a1-6)]Man(b1-4)GlcNAc(b1-4)GlcNAc
In short: as §1

[18] = target: Fuc(a1-2)[GalNAc(a1-3)]Gal(b1-3)GlcNAc(b1-2)Man(a1-3)[Fuc(a1-2)[GalNAc(a1-3)]Gal(b1-3)GlcNAc(b1-2)Man(a1-6)]Man(b1-4)GlcNAc(b1-4)[Fuc(a1-6)]GlcNAc
In short: as §1

[19] = target: Fuc(a1-2)[GalNAc(a1-3)]Gal(b1-3)GlcNAc(b1-3)GalNAc
In short: as §1

[20] = target: Fuc(a1-2)[GalNAc(a1-3)]Gal(b1-3)GlcNAc(b1-6)GalNAc
In short: as §1

[21] = target: Fuc(a1-2)[GalNAc(a1-3)]Gal(b1-4)Glc
In short: as §1

[22] = target: Fuc(a1-2)[GalNAc(a1-3)]Gal(b1-4)GlcNAc
In short: as §1

[23] = target: Fuc(a1-2)[GalNAc(a1-3)]Gal(b1-4)GlcNAc(b1-2)Man
In short: as §1

[24] = target: Fuc(a1-2)[GalNAc(a1-3)]Gal(b1-4)GlcNAc(b1-2)Man(a1-3)[Fuc(a1-2)[GalNAc(a1-3)]Gal(b1-4)GlcNAc(b1-2)Man(a1-6)]Man(b1-4)GlcNAc(b1-4)GlcNAc
In short: as §1

[25] = target: Fuc(a1-2)[GalNAc(a1-3)]Gal(b1-4)GlcNAc(b1-2)Man(a1-3)[Fuc(a1-2)[GalNAc(a1-3)]Gal(b1-4)GlcNAc(b1-2)Man(a1-6)]Man(b1-4)GlcNAc(b1-4)[Fuc(a1-6)]GlcNAc
In short: as §1

[26] = target: Fuc(a1-2)[GalNAc(a1-3)]Gal(b1-4)GlcNAc(b1-3)Gal(b1-4)GlcNAc
In short: as §1

[27] = target: Fuc(a1-2)[GalNAc(a1-3)]Gal(b1-4)GlcNAc(b1-3)Gal(b1-4)GlcNAc(b1-3)Gal(b1-4)GlcNAc
In short: as §1

[28] = target: Fuc(a1-2)[GalNAc(a1-3)]Gal(b1-4)GlcNAc(b1-3)GalNAc
In short: as §1

[29] = target: Fuc(a1-2)[GalNAc(a1-3)]Gal(b1-4)GlcNAc(b1-3)[Fuc(a1-2)[GalNAc(a1-3)]Gal(b1-4)GlcNAc(b1-6)]GalNAc
In short: as §1

[30] = target: Fuc(a1-2)[GalNAc(a1-3)]Gal(b1-4)GlcNAc(b1-6)GalNAc
In short: as §1

[31] = target: Fuc(a1-2)[GalNAc(a1-3)]Gal(b1-4)[Fuc(a1-3)]GlcNAc
In short: as §1

[32] = target: Fuc(a1-2)[GalNAc(a1-3)]Gal(b1-4)[Fuc(a1-3)]GlcNAc(b1-3)GalNAc
In short: as §1

[33] = target: Fuc(a1-2)[GalNAc(a1-4)]Gal(b1-4)GlcNAc
In short: as §1

[34] = target: Fuc(a1-2)[GalNAc(b1-3)]Gal
In short: as §1

[35] = target: Fuc(a1-3)GlcNAc
In short: as §1

[36] = target: Fuc(a1-3)[Gal(b1-4)]Glc6S
In short: as §1

[37] = target: Fuc(a1-3)[Gal(b1-4)]GlcNAc
In short: as §1

B1: Gal 12 (Homo sapiens), Q96DT0 (protein)
chain: MSQPSGGRAPGTRIYSWSCPTVMSPGEKLDPIPDSFILQPPVFHPVVPYVTTIFGGLHAGKMVMLQGVVPLDAHRFQVDFQCGCSLCPRPDIAFHFNPRFHTTKPHVICNTLHGGRWQREARWPHLALRRGSSFLILFLFGNEEVKVSVNGQHFLHFRYRLPLSHVDTLGIFGDILVEAVGFLNINPFVEGSREYPAGHPFLLMSPRLEVPCSHALPQGLSPGQVIIVRGLVLQEPKHFTVSLRDQAAHAPVTLRASFADRTLAWISRWGQKKLISAPFLFYPQRFFEVLLLFQEGGLKLALNGQGLGATSMNQQALEQLRELRISGSVQLYCVHS
[1]
  glycan array binding signal (z-score): -0.491
[2]
  glycan array binding signal (z-score): 0.096
[3]
  glycan array binding signal (z-score): 0.053
[4]
  glycan array binding signal (z-score): -0.727
[5]
  glycan array binding signal (z-score): 1.02
[6]
  glycan array binding signal (z-score): -1.02
[7]
  glycan array binding signal (z-score): -0.63
[8]
  glycan array binding signal (z-score): -0.845
[9]
  glycan array binding signal (z-score): -0.558
[10]
  glycan array binding signal (z-score): 0.385
[11]
  glycan array binding signal (z-score): 4.56
[12]
  glycan array binding signal (z-score): 0.342
[13]
  glycan array binding signal (z-score): -0.432
[14]
  glycan array binding signal (z-score): -0.304
[15]
  glycan array binding signal (z-score): -1.09
[16]
  glycan array binding signal (z-score): -0.257
[17]
  glycan array binding signal (z-score): -0.312
[18]
  glycan array binding signal (z-score): 0.723
[19]
  glycan array binding signal (z-score): 1.71
[20]
  glycan array binding signal (z-score): -1.31
[21]
  glycan array binding signal (z-score): -0.1
[22]
  glycan array binding signal (z-score): 0.03
[23]
  glycan array binding signal (z-score): -0.683
[24]
  glycan array binding signal (z-score): -0.022
[25]
  glycan array binding signal (z-score): -0.558
[26]
  glycan array binding signal (z-score): -0.705
[27]
  glycan array binding signal (z-score): -0.39
[28]
  glycan array binding signal (z-score): 0.193
[29]
  glycan array binding signal (z-score): -0.877
[30]
  glycan array binding signal (z-score): -0.011
[31]
  glycan array binding signal (z-score): 1.3
[32]
  glycan array binding signal (z-score): 2.65
[33]
  glycan array binding signal (z-score): -0.686
[34]
  glycan array binding signal (z-score): 0.304
[35]
  glycan array binding signal (z-score): -0.538
[36]
  glycan array binding signal (z-score): -0.505
[37]
  glycan array binding signal (z-score): -0.385
